# Test results taken from PubChem BioAssay AID248 (DTP/NCI, 2004).
# The list does not hold the whole screen: it is rich in T/C values a quarter to a half above the control, in often repeated tests (any T/C) and in doses without a T/C. Other doses and runs of a compound stand elsewhere. T/C gives the treated animals as a percentage of the vehicle group. Some doses have a count of surviving animals in place of a T/C: the source holds a T/C of zero for them, seemingly a mark for toxic or unscored doses. Some survivor counts are full or nearly so, which does not show that the dose was tolerated: the source hardly ever lists a survival T/C far under the control, and the zero likely stands for such cases as well. Survivors were counted at the toxicity check, usually on the fifth day, unless a day is given; later deaths do not show. Schedule codes are those of the source, read here as Q, the interval in days (D) or hours (H), X, the number of doses. Some doses were run more than once; the results are listed from low to high. Some schedules carry Z or #; the key to these is not given. Where survival is the endpoint, this PubChem deposit counts one and a half times the control or more as active, and values a quarter to a half above the control carry no call in these data; other NCI protocols may use other cut-offs. Signs of the kind (2×) count equal records among those shown. Some T/C values are followed by the survivors on the day toxicity was checked, most often the fifth; where none is given, no animal had died by that day.
# System: L1210 leukemia ip in BDF1 mice, survival T/C
# Test: NCI In Vivo Anticancer Drug Screen. Data for tumor model L1210 Leukemia (intraperitoneal) in B6D2F1 (BDF1) mice
# Settings: T/C endpoint: mean survival time, higher T/C = longer survival
# [1] = dose: 400.0 mg/kg/injection, schedule: Q01DX009 (ip), vehicle: saline with Tween-80
# [2] = dose: 100.0 mg/kg/injection, schedule: Q01DX001 (ip), vehicle: carboxymethylcellulose (CMC)
# [3] = dose: 200.0 mg/kg/injection, schedule: Q01DX009 (ip), vehicle: saline with Tween-80
# [4] = dose: 400.0 mg/kg/injection, schedule: Q04DX003 (ip), vehicle: saline with Tween-80
smiles,measurement,setting,value
C=CC1(O)CC2CCC1C2 (stereo not given),survivor count,[1],5 of 6
CC(C)=CCC(/C=N/N=C(N)N)C(C)C (stereo not given),survivor count,"dose: 15.0 mg/kg/injection, schedule: Q01DX Z (ip), vehicle: saline",6 of 6
same,survivor count,"dose: 30.0 mg/kg/injection, schedule: Q01DX Z (ip), vehicle: saline",5 of 6
same,survivor count,"dose: 60.0 mg/kg/injection, schedule: Q01DX Z (ip), vehicle: saline",0 of 6
same,survivor count,"dose: 120.0 mg/kg/injection, schedule: Q01DX Z (ip), vehicle: saline",0 of 6
same,survivor count,"dose: 120.0 mg/kg/injection, schedule: Q01DX Z (oral), vehicle: saline",3 of 6
O=[N+]([O-])c1ccccc1N=Cc1ccccc1O.[Co],survivor count,"dose: 400.0 mg/kg/injection, schedule: Q01DX001 (ip), vehicle: other",0 of 6
CCOc1ccccc1NC(=O)c1c(Br)c(Br)c(Br)c(Br)c1C(=O)O,survivor count,"dose: 400.0 mg/kg/injection, schedule: Q01DX009 (ip), vehicle: Klucel (hydroxypropylcellulose) (HPC)",0 of 6
O=c1cc2ccccc2c(O)[nH]1,survivor count,"dose: 200.0 mg/kg/injection, schedule: Q01DX001 (ip), vehicle: Klucel (hydroxypropylcellulose) (HPC)",1 of 6
same,survivor count,"dose: 400.0 mg/kg/injection, schedule: Q01DX001 (ip), vehicle: Klucel (hydroxypropylcellulose) (HPC)",1 of 6
O=C(Sc1ccc([N+](=O)[O-])cc1)C(=O)Sc1ccc([N+](=O)[O-])cc1,survivor count,"dose: 50.0 mg/kg/injection, schedule: Q01DX009 (ip), vehicle: saline with Tween-80",3 of 3
Cc1n(CC(C)C)c2c([n+]1C)C(=O)c1ccccc1C2=O,survivor count,"dose: 0.5 mg/kg/injection, schedule: Q01DX015 (ip), vehicle: saline",3 of 6
same,survivor count,"dose: 2.0 mg/kg/injection, schedule: Q01DX015 (ip), vehicle: saline",4 of 6
same,survivor count,"dose: 4.0 mg/kg/injection, schedule: Q01DX015 (ip), vehicle: saline",0 of 6
same,survivor count,"dose: 4.0 mg/kg/injection, schedule: Q04DX003 (ip), vehicle: saline",5 of 6
same,survivor count,"dose: 5.0 mg/kg/injection, schedule: Q01DX001 (ip), vehicle: carboxymethylcellulose (CMC)",0 of 4
same,survivor count,"dose: 8.0 mg/kg/injection, schedule: Q01DX015 (ip), vehicle: saline",0 of 6
same,survivor count,"dose: 8.0 mg/kg/injection, schedule: Q04DX003 (ip), vehicle: saline",0 of 6
same,survivor count,"dose: 10.0 mg/kg/injection, schedule: Q01DX001 (ip), vehicle: carboxymethylcellulose (CMC)",0 of 4
same,survivor count,"dose: 16.0 mg/kg/injection, schedule: Q04DX003 (ip), vehicle: saline",0 of 6
same,survivor count,"dose: 20.0 mg/kg/injection, schedule: Q01DX001 (ip), vehicle: carboxymethylcellulose (CMC)",0 of 4
same,survivor count,"dose: 40.0 mg/kg/injection, schedule: Q01DX001 (ip), vehicle: carboxymethylcellulose (CMC)",0 of 4
same,survivor count,"dose: 50.0 mg/kg/injection, schedule: Q01DX001 (ip), vehicle: carboxymethylcellulose (CMC)",0 of 4
same,survivor count,"dose: 80.0 mg/kg/injection, schedule: Q01DX001 (ip), vehicle: carboxymethylcellulose (CMC)",0 of 4
same,survivor count,[2],0 of 4
same,survivor count,"dose: 200.0 mg/kg/injection, schedule: Q01DX001 (ip), vehicle: carboxymethylcellulose (CMC)",0 of 4
same,survivor count,"dose: 400.0 mg/kg/injection, schedule: Q01DX001 (ip), vehicle: carboxymethylcellulose (CMC)",0 of 4
CC(=O)Nc1ccccc1C[P+](c1ccccc1)(c1ccccc1)c1ccccc1,survivor count,"dose: 100.0 mg/kg/injection, schedule: Q04DX003 (ip), vehicle: Klucel (hydroxypropylcellulose) (HPC)",5 of 6
same,survivor count,"dose: 200.0 mg/kg/injection, schedule: Q04DX003 (ip), vehicle: Klucel (hydroxypropylcellulose) (HPC)",0 of 6
same,survivor count,"dose: 400.0 mg/kg/injection, schedule: Q04DX003 (ip), vehicle: Klucel (hydroxypropylcellulose) (HPC)",0 of 6
CC(=O)Oc1cccc(OC(=O)Nc2ccccc2F)c1,survivor count,[1],0 of 6
c1cnc2sccc2c1,survivor count,[3],3 of 6
same,survivor count,[4],0 of 6
Nc1ncc(N)c(N)n1,T/C,"dose: 47.0 mg/kg/injection, schedule: Q01DX Z (ip), vehicle: saline",127 % of control
same,T/C,"dose: 70.0 mg/kg/injection, schedule: Q01DX Z (ip), vehicle: saline",125 % of control (2×)
same,T/C,"dose: 106.0 mg/kg/injection, schedule: Q01DX Z (ip), vehicle: carboxymethylcellulose (CMC)",142 % of control
same,T/C,"dose: 106.0 mg/kg/injection, schedule: Q01DX Z (ip), vehicle: other",131 % of control
same,T/C,"dose: 160.0 mg/kg/injection, schedule: Q01DX Z (ip), vehicle: carboxymethylcellulose (CMC)",140 % of control
same,T/C,"dose: 160.0 mg/kg/injection, schedule: Q01DX Z (ip), vehicle: other",126 % of control
same,T/C,"dose: 160.0 mg/kg/injection, schedule: Q01DX Z (ip), vehicle: saline",135 % of control
same,T/C,"dose: 235.0 mg/kg/injection, schedule: Q01DX009 (ip), vehicle: saline with Tween-80",128 % of control
same,T/C,"dose: 240.0 mg/kg/injection, schedule: Q01DX Z (ip), vehicle: carboxymethylcellulose (CMC)",138 % of control
same,T/C,"dose: 240.0 mg/kg/injection, schedule: Q01DX Z (ip), vehicle: other",132 % of control
same,T/C,"dose: 240.0 mg/kg/injection, schedule: Q01DX Z (ip), vehicle: saline",132 % of control
same,T/C,"dose: 360.0 mg/kg/injection, schedule: Q01DX009 (ip), vehicle: saline with Tween-80",133 % of control
same,T/C,"dose: 360.0 mg/kg/injection, schedule: Q01DX Z (ip), vehicle: other",137 % of control
same,T/C,"dose: 360.0 mg/kg/injection, schedule: Q01DX Z (ip), vehicle: saline",139 % of control
same,T/C,[1],133 % of control
same,T/C,"dose: 540.0 mg/kg/injection, schedule: Q01DX Z (ip), vehicle: saline",134 % of control [5 of 6 alive]
COC(=O)C(C)C(C)(O)C(C)(C)C (stereo not given),survivor count,"dose: 200.0 mg/kg/injection, schedule: Q04DX003 (ip), vehicle: saline with Tween-80",0 of 6
same,survivor count,[4],0 of 6
O=C(/C=C\c1ccc(NCc2ccc(C(=O)O)cc2)cc1)CCl,survivor count,[2],4 of 4
O=C(O)C(Oc1ccccc1O)C(=O)O,survivor count,"dose: 400.0 mg/kg/injection, schedule: Q04DX003 (ip), vehicle: saline",0 of 6
CCN(CC)CCOC(=O)Nc1cccc(Cl)c1,survivor count,"dose: 200.0 mg/kg/injection, schedule: Q01DX009 (ip), vehicle: saline",0 of 6
same,survivor count,"dose: 400.0 mg/kg/injection, schedule: Q01DX009 (ip), vehicle: saline",0 of 6
Clc1ccc(/C=N\N=C\c2ccc(Cl)c(Cl)c2)cc1Cl,survivor count,"dose: 100.0 mg/kg/injection, schedule: Q04DX003 (ip), vehicle: saline with Tween-80",6 of 6
same,survivor count,[3],6 of 6
[CH3][Sn]([CH3])([Cl])[CH2]Cl,survivor count,"dose: 6.25 mg/kg/injection, schedule: Q01DX009 (ip), vehicle: saline",3 of 6 and 5 of 6
same,survivor count,"dose: 12.5 mg/kg/injection, schedule: Q01DX009 (ip), vehicle: saline",0 of 6
same,survivor count,"dose: 25.0 mg/kg/injection, schedule: Q01DX009 (ip), vehicle: saline",0 of 6
same,survivor count,"dose: 25.0 mg/kg/injection, schedule: Q04DX002 (ip), vehicle: saline",0 of 3
same,survivor count,"dose: 50.0 mg/kg/injection, schedule: Q04DX002 (ip), vehicle: saline",0 of 3
same,survivor count,"dose: 100.0 mg/kg/injection, schedule: Q04DX002 (ip), vehicle: saline",0 of 3
same,survivor count,"dose: 200.0 mg/kg/injection, schedule: Q04DX002 (ip), vehicle: saline",0 of 3
same,survivor count,"dose: 400.0 mg/kg/injection, schedule: Q04DX002 (ip), vehicle: saline",0 of 3
